Source: US20260284208A1, “SYSTEM” (Oxford University Innovation Limited, priority 2023, published 2026)
The source gives many values for each of these; only a part stands here.

Tested on: library of 8,380 IKZF3 degrons (ZF-eGFP/mCherry reporter) in Jurkat cells
Assay: Pooled library screen (FACS, NGS, limma voom LogFC of positive vs negative read counts)
Assay type: cell-based, human
Method: A library of 8,380 IKZF3 degrons was cloned into pLVX-Sprout to create the eGFP/mCherry protein degradation reporter plasmid pool. A lentivirus pool was then generated using the Lenti-X lentiviral vector production method.
Jurkat cells were transduced at a multiplicity of infection of <0.3 with the lentivirus vector library in order to maximise the number of cells with a single integration. Transductions were carried out in 6 well TC-treated cell culture dishes (Falcon) with 3×10^6 cells per well. Cells were incubated for 2 days at 37° C. and 5% CO2 before the supernatant was removed and replaced with fresh media. 6 days post-transduction, mCherry+ cells were isolated via FACS using the FACS Aria Fusion (BD) in a buffer containing PBS (Gibco), 2 mM EDTA (Gibco), 25 mM HEPES (Sigma) and 1% BSA (Sigma). 8 days later, cells were treated with DMSO or a thalidomide analog for 18 hours at 37° C. and 5% CO2. mCherry+GFPlow and NOT(mCherry+GFPlow) cells were sorted by FACS using the FACS Aria Fusion (BD). DMSO treated cells were used to set the mCherry+GFPlow gate and dead cells were excluded from sorting by staining cells with 1 μg/mL DAPI (ThermoFisher). gDNA was isolated using the Maxwell RSC 48 (Promega). gDNA from cells that were unsorted and untreated were also isolated to determine the library representation on the day of compound treatment. Throughout the screen >600× coverage of the library was maintained. 3 biological replicates were carried out with a new transduction taking place each time.
A two-step PCR was used where the first PCR (PCR1) amplified the integrated degron sequence from gDNA and the second PCR (PCR2) added Illumina adaptors and barcodes to permit multiplexing. See Supp F for PCR1 and PCR2 primers. Q5 Hot Start High-Fidelity 2× Master Mix (New England Biolabs) was used for both PCRs. Sufficient gDNA was amplified in PCR1 in order to maintain >600× coverage and amplicons were purified using solid phase reversible immobilization (SPRI) beads (Beckman Coulter). Purified PCR1 products were analysed on the Tapestation 4200 (Agilent) to confirm purity prior to proceeding to PCR2. Sufficient PCR1 product was amplified in PCR2 in order to maintain >600× coverage and amplicons were run on a 2% agarose TAE gel. Target bands were excised and purified using the NucleoSpin Gel and PCR Clean-up Kit (Machery Nagel). Amplicons were analysed on the Tapestation 4200 and quantified using Qubit dsDNA HS kit (ThermoFisher). PCR products were pooled and sequenced as paired-reads on the NovaSeq (Illumina) using a SP2 200 cycles kit (Illumina).
Count distributions, percentage of read mapping, library coverage and replicate correlation per sample were assessed for QC purposes.
To carry out the library screen, we used the same plasmid construct as in our earlier flow cytometry assays, but pooling all 8,380 mutants together into one Jurkat population, ensuring a copy number of one plasmid per cell (FIG. 4B). […] These GFP-negative cells were then separated from the remaining GFP-positive population using fluorescence activated cell sorting (FACS). These two populations were then sequenced and the relative abundance of every mutant in both populations compared to provide a log FC value for each mutant sequence. This value indicated how frequently a sequence is observed in the GFP-negative population relative to the GFP-positive population, and therefore how effective a degron it is for that particular IMID compound.

O=C1CCC(N2C(=O)c3ccc(N4CCOCC4)cc3C2=O)C(=O)N1 (stereo not shown) [B03]
B03_logFC (Degron-ID 1793, SEQ ID NO 3927, 46F_47I_49E_50V_52G_53A_54Q_55F_67L): 2.796 | B03_logFC (Degron-ID 1794, SEQ ID NO 4399, 46F_47I_49E_50V_52G_53A_54R_55F_67L_): 2.038 | B03_logFC (Degron-ID 1795, SEQ ID NO 3881, 46F_47I_49E_50V_52G_53A_54S_55F_67L): 2.88 | B03_logFC (Degron-ID 1860, SEQ ID NO 3740, 46F_47I_49P_50I_52G_53A_54A_55F_67L_): 3.147 | B03_logFC (Degron-ID 1861, SEQ ID NO 4418, 46F_47I_49P_50I_52G_53A_54C_55F_67L_): 2.019 | B03_logFC (Degron-ID 1863, SEQ ID NO 4322, 46F_47I_49P_50I_52G_53A_54E_55F_67L_): 2.172 | B03_logFC (Degron-ID 1866, SEQ ID NO 4339, 46F_47I_49P_50I_52G_53A_54H_55F_67L_): 2.146 | B03_logFC (Degron-ID 1873, SEQ ID NO 3897, 46F_47I_49P_50I_52G_53A_54Q_55F_67L): 2.856 | B03_logFC (Degron-ID 1875, SEQ ID NO 3888, 46F_47I_49P_50I_52G_53A_54S_55F_67L): 2.873 | B03_logFC (Degron-ID 1879, SEQ ID NO 4411, 46F_47I_49P_50I_52G_53A_54Y_55F_67L_): 2.029 | B03_logFC (Degron-ID 1900, SEQ ID NO 3894, 46F_47I_49P_50V_52G_53A_54A_55F_67L): 2.862 | B03_logFC (Degron-ID 1901, SEQ ID NO 4384, 46F_47I_49P_50V_52G_53A_54C_55F_67L_): 2.062 | B03_logFC (Degron-ID 1911, SEQ ID NO 3912, 46F_47I_49P_50V_52G_53A_54N_55F_67L): 2.828 | B03_logFC (Degron-ID 1914, SEQ ID NO 4372, 46F_47I_49P_50V_52G_53A_54R_55F_67L_): 2.085 | B03_logFC (Degron-ID 2112, SEQ ID NO 4284, 46F_47K_49P_50I_52G_53A_54P_55F_67L_): 2.243 | B03_logFC (Degron-ID 2172, SEQ ID NO 4334, 46F_47L_49D_50I_52G_53A_54P_55F_67L_): 2.151 | B03_logFC (Degron-ID 2232, SEQ ID NO 3916, 46F_47L_49E_50I_52G_53A_54P_55F_67L): 2.822 | B03_logFC (Degron-ID 2352, SEQ ID NO 3817, 46F_47L_49P_50I_52G_53A_54P_55F_67L_): 2.979 | B03_logFC (Degron-ID 2412, SEQ ID NO 3687, 46F_47M_49D_50I_52G_53A_54P_55F_67L_): 3.249 | B03_logFC (Degron-ID 2505, SEQ ID NO 4427, 46F_47M_49E_50V_52G_53A_54G_55F_67L_): 2.012 | B03_logFC (Degron-ID 2532, SEQ ID NO 3778, 46F_47M_49N_50I_52G_53A_54P_55F_67L_): 3.048 | B03_logFC (Degron-ID 2620, SEQ ID NO 4306, 46F_47M_49P_50V_52G_53A_54A_55F_67L_): 2.209 | B03_logFC (Degron-ID 2625, SEQ ID NO 4340, 46F_47M_49P_50V_52G_53A_54G_55F_67L_): 2.14 | B03_logFC (Degron-ID 2635, SEQ ID NO 4398, 46F_47M_49P_50V_52G_53A_54S_55F_67L_): 2.039 | B03_logFC (Degron-ID 2832, SEQ ID NO 3705, 46F_47N_49P_50I_52G_53A_54P_55F_67L_): 3.203 | B03_logFC (Degron-ID 2872, SEQ ID NO 4043, 46F_47N_49P_50V_52G_53A_54P_55F_67L): 2.617 | B03_logFC (Degron-ID 2881, SEQ ID NO 4355, 46F_47Q_49D_50I_52G_53A_54C_55F_67L_): 2.117 | B03_logFC (Degron-ID 2888, SEQ ID NO 4280, 46F_47Q_49D_50I_52G_53A_54K_55F_67L_): 2.247 | B03_logFC (Degron-ID 2892, SEQ ID NO 3744, 46F_47Q_49D_50I_52G_53A_54P_55F_67L_): 3.141 | B03_logFC (Degron-ID 2932, SEQ ID NO 4358, 46F_47Q_49D_50V_52G_53A_54P_55F_67L_): 2.109 | B03_logFC (Degron-ID 2940, SEQ ID NO 3931, 46F_47Q_49E_50I_52G_53A_54A_55F_67L): 2.786 | B03_logFC (Degron-ID 2941, SEQ ID NO 3769, 46F_47Q_49E_50I_52G_53A_54C_55F_67L_): 3.082 | B03_logFC (Degron-ID 2947, SEQ ID NO 3726, 46F_47Q_49E_50I_52G_53A_54I_55F_67L_): 3.158 | B03_logFC (Degron-ID 2948, SEQ ID NO 3833, 46F_47Q_49E_50I_52G_53A_54K_55F_67L_): 2.953 | B03_logFC (Degron-ID 2950, SEQ ID NO 4292, 46F_47Q_49E_50I_52G_53A_54M_55F_67L_): 2.236 | B03_logFC (Degron-ID 2953, SEQ ID NO 4288, 46F_47Q_49E_50I_52G_53A_54Q_55F_67L_): 2.238 | B03_logFC (Degron-ID 2954, SEQ ID NO 4364, 46F_47Q_49E_50I_52G_53A_54R_55F_67L_): 2.097 | B03_logFC (Degron-ID 2955, SEQ ID NO 3925, 46F_47Q_49E_50I_52G_53A_54S_55F_67L): 2.799 | B03_logFC (Degron-ID 2980, SEQ ID NO 3652, 46F_47Q_49E_50V_52G_53A_54A_55F_67L_): 3.341 | B03_logFC (Degron-ID 2987, SEQ ID NO 3773, 46F_47Q_49E_50V_52G_53A_54I_55F_67L_): 3.067 | B03_logFC (Degron-ID 2988, SEQ ID NO 3815, 46F_47Q_49E_50V_52G_53A_54K_55F_67L_): 2.983 | B03_logFC (Degron-ID 2990, SEQ ID NO 4357, 46F_47Q_49E_50V_52G_53A_54M_55F_67L_): 2.113 | B03_logFC (Degron-ID 2995, SEQ ID NO 3867, 46F_47Q_49E_50V_52G_53A_54S_55F_67L): 2.895
